Results taken from BindingDB's records for doi:10.1038/347146a0 (U. 109, 1990).

Sequences of proteins named here, by UniProt entry; tags and fusion partners are left off.
UniProt P19020, whole entry: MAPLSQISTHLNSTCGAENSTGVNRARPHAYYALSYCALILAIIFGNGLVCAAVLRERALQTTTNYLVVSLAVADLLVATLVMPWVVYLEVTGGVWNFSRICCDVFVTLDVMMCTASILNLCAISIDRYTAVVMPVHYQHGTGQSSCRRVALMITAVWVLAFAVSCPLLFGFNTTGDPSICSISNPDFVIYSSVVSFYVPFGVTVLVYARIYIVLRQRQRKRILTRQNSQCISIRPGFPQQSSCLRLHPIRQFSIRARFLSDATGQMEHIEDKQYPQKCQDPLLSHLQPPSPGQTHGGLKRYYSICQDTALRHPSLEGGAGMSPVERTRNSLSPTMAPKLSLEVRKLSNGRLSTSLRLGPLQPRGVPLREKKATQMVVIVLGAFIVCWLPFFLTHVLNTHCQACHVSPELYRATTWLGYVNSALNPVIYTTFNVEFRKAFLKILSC

Biological target: D(3) dopamine receptor (Rattus norvegicus, UniProt P19020)

Ki: 7.8 nM
Compound: CSc1ccc2c(c1)N(CC[C@@H]1CCCCN1C)c1ccccc1S2 [10-[2-(1-Methyl-piperidin-2-yl)-ethyl]-2-methylsulfanyl-10H-phenothiazine (thioridazine)]
